Experiment [1] has as its target insulin-like growth factor 1 (IGF-1) (UniProt P05019). Briefly: ELISA.
Experiment [2] addresses human insulin-like growth factor 1 receptor (IGF-1R) (human) (UniProt P08069). Description: ELISA (Example 2). (ELISA stands for enzyme-linked immunosorbent assay.)
For experiment [3] the target is unchanged. Briefly: ELISA.

The chains behind the UniProt entries cited, without tags or fusion partners. Residues count along the entry.
UniProt P05019, residues 49-118: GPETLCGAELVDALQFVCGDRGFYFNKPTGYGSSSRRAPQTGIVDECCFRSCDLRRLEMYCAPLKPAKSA
UniProt P08069, residues 31-932: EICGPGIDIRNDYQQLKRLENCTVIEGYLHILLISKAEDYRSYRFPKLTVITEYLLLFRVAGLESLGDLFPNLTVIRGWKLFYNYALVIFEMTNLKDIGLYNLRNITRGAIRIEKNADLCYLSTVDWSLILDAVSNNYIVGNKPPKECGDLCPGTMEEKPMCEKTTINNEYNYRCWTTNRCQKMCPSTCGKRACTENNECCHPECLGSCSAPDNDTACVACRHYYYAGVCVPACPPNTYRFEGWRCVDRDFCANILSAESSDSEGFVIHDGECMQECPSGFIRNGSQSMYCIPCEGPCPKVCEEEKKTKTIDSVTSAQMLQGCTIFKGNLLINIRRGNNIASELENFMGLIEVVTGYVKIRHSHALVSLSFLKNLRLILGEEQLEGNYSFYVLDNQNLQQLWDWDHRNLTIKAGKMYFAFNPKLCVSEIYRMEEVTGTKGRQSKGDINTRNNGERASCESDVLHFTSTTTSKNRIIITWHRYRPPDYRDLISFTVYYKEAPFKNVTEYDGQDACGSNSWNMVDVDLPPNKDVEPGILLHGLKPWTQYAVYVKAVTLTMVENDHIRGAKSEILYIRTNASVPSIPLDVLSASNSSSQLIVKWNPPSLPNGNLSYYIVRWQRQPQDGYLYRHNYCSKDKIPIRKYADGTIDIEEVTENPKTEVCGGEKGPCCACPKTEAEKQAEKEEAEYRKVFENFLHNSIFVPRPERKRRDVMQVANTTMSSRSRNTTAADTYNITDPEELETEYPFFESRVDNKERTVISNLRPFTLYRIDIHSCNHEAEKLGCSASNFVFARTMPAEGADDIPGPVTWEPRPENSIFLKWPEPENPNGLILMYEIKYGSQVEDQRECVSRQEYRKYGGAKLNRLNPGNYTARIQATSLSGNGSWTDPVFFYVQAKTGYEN

No constants are given. Whether binding was seen depends on the method and setting. Some entries that bind do so weakly or less than the wild type.

B1: m636 (VHH)
VHH: QVQLVQSGGGLVQPGGSLRLSCAASYYSLQHDNFPYTFMSWVRQAPGQRLEWVSGISGSGGSTYYADSVKGRFTISRDNSKNTLYLQMNTLRAEDTAMYYCARIRWLQDLDYWGQGTLVTVSS
As for B1, the binding entry in experiment [1] was “binds”.

B2: m535 (VHH)
VHH: QVQLVQSGGGLVQPGGSLRLSCAASSFSFSDYEMSWVRQAPGKGLEWVAHINSDGVIQYADSVKGRFTISRDNSKNTLYLQMNTLRAEDTATYYCVRVAVPGKRYFQYWGQGTTVTVSS
As to B2, the binding entry in experiment [2] and in experiment [3] was “binds” each time.

B3: m536 (VHH)
VHH: QVQLVQSGGGLVQPGGSLRLSCAASYYGQSFDSDSVVFMSWVRQAPGKGLEWISSMSNTGTYIDYADSVKGRFTISRDNSKNTLYLQMNTLRAEDTATYYCVKEWDRGLRRLQHWGQGTVVTVSS
Take B3: the binding result in experiment [2] and in experiment [3] was “binds” throughout.

B4: m537 (VHH)
VHH: QVQLVQSGGGLVQPGGSLRLSCAASNYSQQTYSAPITFMSWVRQAPGQGLEWVSSTSWNGGTTDYADSVKGRFTISRDNSKNTLYLQMNTLRAEDTAMYYCVTDTSGWRYFQDWGQGTLVTVSS
Regarding B4, the binding entry in experiment [2] and in experiment [3] was “binds” in each case.

B5: m546 (VHH)
VHH: QVQLVQSGGGLVQPGGSLRLSCAASYYSQQYNSYPITFMSWVRQAPGQRLEWVASINQDGSQIDYAGSVKGRFTISRDNSKNTLYLQMNTLRAEDTATYYCAVDLRSGARNFQHWGQGTLVTVSS
Regarding B5, the binding entry in experiment [3] is “binds”.
